Results from article PMC7819943, “Rice protein-binding microarrays: a tool to detect cis-acting elements near promoter regions in rice”.
This is one part of the list.

The sequences below were run against T1, OsSMF1 (Oryza sativa, UniProt Q6ZLB0 1-436) (assay: protein-binding microarray (RPBM); PBS, 2% BSA, 51.3 ng/ul salmon testes DNA, 50 uM zinc acetate, 200 nM TF, 25 C, 1 h; high values mean tight binding). Details: protein: recombinant; tags: N-terminal polyhistidine and DsRed monomer fusion (pET32a); chain copies: 2; label: CyDye5-dUTP incorporated in the synthesized complementary strand; 3' TTTTT single-stranded linker to array surface; dsDNA, one strand shown.
T1 sequence: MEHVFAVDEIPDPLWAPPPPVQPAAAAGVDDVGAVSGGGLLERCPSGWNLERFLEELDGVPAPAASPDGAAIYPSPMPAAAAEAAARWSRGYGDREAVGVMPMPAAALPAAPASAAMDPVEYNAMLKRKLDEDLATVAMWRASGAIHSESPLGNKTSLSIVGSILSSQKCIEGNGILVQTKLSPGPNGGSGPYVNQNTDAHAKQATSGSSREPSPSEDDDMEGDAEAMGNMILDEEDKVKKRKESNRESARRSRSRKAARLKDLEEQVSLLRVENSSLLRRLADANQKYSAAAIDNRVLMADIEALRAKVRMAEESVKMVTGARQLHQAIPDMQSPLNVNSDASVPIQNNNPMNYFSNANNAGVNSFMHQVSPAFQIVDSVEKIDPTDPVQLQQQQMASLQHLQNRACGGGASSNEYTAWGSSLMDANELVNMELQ
Procedure, shortened: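 The binding signal for each feature is its fluorescence intensity in arbitrary units. An Axon 4000B scanner was used to read a custom Agilent array that had been made double-stranded with Cy5-dUTP primer extension, blocked with 2% BSA, incubated at 25 °C for 1 h with 200 nM protein in PBS, 2% BSA, salmon testes DNA and 50 µM zinc acetate, and washed. The protein was an N-terminal polyhistidine–DsRed transcription factor fusion from E. coli BL21-CodonPlus, purified on Ni–NTA.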

**Q.** “AGCGTGGCGATGGCGGTGGGCACATTGAAGAGGATGAGCGCGGAGTCACCTAGTGCAG” was tested. Which binding signal did it give?
**A.** 4940 fluorescence intensity (a.u.)

**Q.** How did the binding signal turn out when “TTCCGCCGCTGACGTCACGCATCCCATCACACACGTCACGCGGAGTCACCTAGTGCAG” was run?
**A.** 21200 fluorescence intensity (a.u.)

**Q.** Which binding signal does the source give for “CGATGAGATCATGAGAGATTGACATGTCAACGGACGCGAACGGAGTCACCTAGTGCAG” here?
**A.** 3170 fluorescence intensity (a.u.)

**Q.** For “AATTAAACAATCGTGATCCACGTGCTGACAAGTAGGTCGCCGGAGTCACCTAGTGCAG”, which binding signal is on record?
**A.** 4720 fluorescence intensity (a.u.)

**Q.** With “GCCGGGCCGGGCCGAATTCTGATGAGGCTGGCAGGTGGGCCGGAGTCACCTAGTGCAG” as the sequence, how does the binding signal read?
**A.** 30000 fluorescence intensity (a.u.)

**Q.** How did the binding signal turn out when “GCAGGTGGGCCCAGATGGTGGTGTCCCCACCATGTCAGCGCGGAGTCACCTAGTGCAG” was run?
**A.** 3820 fluorescence intensity (a.u.)

**Q.** How did the binding signal turn out when “ATTATCAAATCATGACGCAATTATGCTTAAAAGATTCGTCCGGAGTCACCTAGTGCAG” was run?
**A.** 3150 fluorescence intensity (a.u.)

**Q.** “ATCCTTTTGAGCGTAGACTTATCTATCAAAAGGTGATGAACGGAGTCACCTAGTGCAG” was tested. Which binding signal did it give?
**A.** 3560 fluorescence intensity (a.u.)

**Q.** With “TCGTGGGACGGCCTGCACATGACGGAGGCGGTGTACCGGACGGAGTCACCTAGTGCAG” as the sequence, how does the binding signal read?
**A.** 3560 fluorescence intensity (a.u.)

**Q.** Which binding signal does the source give for “AGCCTAGATCCACGGCACCAGGTTCGTCCCTTACCCCTCTCGGAGTCACCTAGTGCAG” here?
**A.** 3830 fluorescence intensity (a.u.)

**Q.** For “CATTTGCTAATGACGTATTAATTAGGCTTAATAAATTTGTCGGAGTCACCTAGTGCAG”, which binding signal is on record?
**A.** 5970 fluorescence intensity (a.u.)

**Q.** With “AAGTGCGTGCCTATGAGGCATCCTAATCAGCATTCAACTTCGGAGTCACCTAGTGCAG” as the sequence, how does the binding signal read?
**A.** 4340 fluorescence intensity (a.u.)

**Q.** Which binding signal does the source give for “TGGATCGGGTGATGTGTTGTCGTTCCCTCGGTGTATCCTTCGGAGTCACCTAGTGCAG” here?
**A.** 6220 fluorescence intensity (a.u.)

**Q.** Which binding signal does the source give for “GACAAACTGCAGCATATACACACACGTACGCACCCGCATCCGGAGTCACCTAGTGCAG” here?
**A.** 6520 fluorescence intensity (a.u.)

**Q.** How did the binding signal turn out when “CATTATATGCTACCTCTAAAATATTGCACTCAAATAATTACGGAGTCACCTAGTGCAG” was run?
**A.** 3370 fluorescence intensity (a.u.)

**Q.** Which binding signal does the source give for “TTGTTCCCTTTCTCTTCAATTACGCCATTGCCGTCTTGCCCGGAGTCACCTAGTGCAG” here?
**A.** 11000 fluorescence intensity (a.u.)

**Q.** With “TCACCTTGAGGACAACCAATTAACCGGTGCATTGCCACCTCGGAGTCACCTAGTGCAG” as the sequence, how does the binding signal read?
**A.** 4020 fluorescence intensity (a.u.)

**Q.** How did the binding signal turn out when “TGTCCCCTATTTCACGTGACGTGACAACTGAATCAACGCGCGGAGTCACCTAGTGCAG” was run?
**A.** 5740 fluorescence intensity (a.u.)

**Q.** For “TAATAGTATAGTGACTATAGTCCACTACTAGCTCCAAATTCGGAGTCACCTAGTGCAG”, which binding signal is on record?
**A.** 20600 fluorescence intensity (a.u.)

**Q.** Which binding signal does the source give for “CCGGCCGCAGCAACAAGATTAGGAAGATAGAGTGATTCATCGGAGTCACCTAGTGCAG” here?
**A.** 17700 fluorescence intensity (a.u.)

**Q.** With “TCCCTTGTCGACACATGCGTGTCAGCTCCAGGTTTATAACCGGAGTCACCTAGTGCAG” as the sequence, how does the binding signal read?
**A.** 6370 fluorescence intensity (a.u.)

**Q.** Which binding signal does the source give for “CTTAGTGCCAAGCGGTCTGAGGTGTCATGGCTTTCACTCACGGAGTCACCTAGTGCAG” here?
**A.** 8740 fluorescence intensity (a.u.)

**Q.** “TGATTTGTGTTACCATGACGTCTGTCTATTTCCTAGTCATCGGAGTCACCTAGTGCAG” was tested. Which binding signal did it give?
**A.** 5000 fluorescence intensity (a.u.)

**Q.** Which binding signal does the source give for “CCTTCCCCTTCCCGGCGCGCGCATCGCATGTTCCCGCGACCGGAGTCACCTAGTGCAG” here?
**A.** 9090 fluorescence intensity (a.u.)

**Q.** For “CCTCATCTGTATTTTGGTGACTGGGCTGACACATCAGCACCGGAGTCACCTAGTGCAG”, which binding signal is on record?
**A.** 25600 fluorescence intensity (a.u.)

**Q.** For “ACCGCATCACATCAAGCATCCACCAACCAACCCAACAACACGGAGTCACCTAGTGCAG”, which binding signal is on record?
**A.** 3910 fluorescence intensity (a.u.)

**Q.** With “ATTATTATTTATTTTGTTTATCATTTGCTTTATTATCAAACGGAGTCACCTAGTGCAG” as the sequence, how does the binding signal read?
**A.** 22200 fluorescence intensity (a.u.)

**Q.** “TGGTCGCCCACAGAATTTCCACGTGTCTCACGGTCAGCCGCGGAGTCACCTAGTGCAG” was tested. Which binding signal did it give?
**A.** 17100 fluorescence intensity (a.u.)

**Q.** Which binding signal does the source give for “ACCCCATGATCGTTCGCTTCGCTCTGAGCCTCTGACCTGTCGGAGTCACCTAGTGCAG” here?
**A.** 3830 fluorescence intensity (a.u.)

**Q.** “CACTACATGAACTGCCACCGCGGATGCGGTGATCTCATCTCGGAGTCACCTAGTGCAG” was tested. Which binding signal did it give?
**A.** 4010 fluorescence intensity (a.u.)

**Q.** Which binding signal does the source give for “AAACAAGTGCCAAGCAAACGGAGTCATCTTAACCCCTCCCCGGAGTCACCTAGTGCAG” here?
**A.** 4280 fluorescence intensity (a.u.)

**Q.** For “CTGCTCCGGCCACGTGGACCCACCATCGGGACGCCACCTCCGGAGTCACCTAGTGCAG”, which binding signal is on record?
**A.** 14600 fluorescence intensity (a.u.)

**Q.** For “TTATTCACACTGACAGCAATATATCTTCAGGGTTACAGTGCGGAGTCACCTAGTGCAG”, which binding signal is on record?
**A.** 3150 fluorescence intensity (a.u.)

**Q.** With “TTCAGAAATACTAGAACGTACCAGGGGCAAACTCCAAAACCGGAGTCACCTAGTGCAG” as the sequence, how does the binding signal read?
**A.** 19500 fluorescence intensity (a.u.)

**Q.** Which binding signal does the source give for “GTCGCCGCCAATCATGTCGTCATCGTGTCGCCATCCCATCCGGAGTCACCTAGTGCAG” here?
**A.** 5730 fluorescence intensity (a.u.)

**Q.** How did the binding signal turn out when “GGACCTGTCTGCAAATTACTCCAGCTCATCGTCTCCGCCGCGGAGTCACCTAGTGCAG” was run?
**A.** 5350 fluorescence intensity (a.u.)

**Q.** For “GTTGGGACTTGGGATGGGCCGACGTGCTGCAAGCCTGCAACGGAGTCACCTAGTGCAG”, which binding signal is on record?
**A.** 3550 fluorescence intensity (a.u.)

**Q.** How did the binding signal turn out when “CGTCGTCGCCGCCGCCGCCCTCTGCGTCGACGCTGCGGCACGGAGTCACCTAGTGCAG” was run?
**A.** 3220 fluorescence intensity (a.u.)

**Q.** For “TCGCTCTACCCCACCACTTCCTCACACGCGGCCGTCGCCGCGGAGTCACCTAGTGCAG”, which binding signal is on record?
**A.** 3370 fluorescence intensity (a.u.)

**Q.** For “TTTCTATTTTACCCTTAATTGTCCTTCTATTCTTACCTATCGGAGTCACCTAGTGCAG”, which binding signal is on record?
**A.** 3270 fluorescence intensity (a.u.)

**Q.** Which binding signal does the source give for “CCCTGTCCTGAAACGCCGTGACGGCTTCTCCTTCTCCCTCCGGAGTCACCTAGTGCAG” here?
**A.** 8960 fluorescence intensity (a.u.)

**Q.** For “GACCACACACTTGTTGGCGCCCGCGTGGATCTCTCCATCTCGGAGTCACCTAGTGCAG”, which binding signal is on record?
**A.** 3580 fluorescence intensity (a.u.)
